PubChem BioAssay AID652272, Drosophila RNAi Screening Center, 2013
The deposit covers about 21,000 reagents; below is an unselected part of those with a known target gene and a result. Of all reagents, 503 (2.4%) got an active call. 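Raw plate light values, not normalised; calls rest on replicate z-scores that were not deposited; hits include reporter decreases as well as increases.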 The numbers tell different reagents against one gene apart. A plus sign joins genes that one reagent is predicted to hit. The record does not give: the amount of reagent, the time to read-out.

Assay: 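Genes whose knock-down decreases or increases Hedgehog reporter output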 (primary screen)
System: Drosophila clone 8 (Cl8) cells
Reagent: long dsRNA against Drosophila genes
Measured: 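Plate reader light from a firefly reporter under a ptc promoter fragment that responds to Hedgehog, with Renilla light as transfection reference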
Direction: firefly Hh reporter signal: higher = more ptc reporter light; Renilla reference signal: higher = more Renilla control light
Rule for the call: 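Hit when the z-score averaged over two replicates is under -2 or over +3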
Meaning of the calls: active = hit: reporter lowered or raised; inactive = not a hit

gene knocked down	reagent no.	firefly Hh reporter signal, replicate 1	firefly Hh reporter signal, replicate 2	firefly Hh reporter signal, replicate 3	Renilla reference signal, replicate 1	Renilla reference signal, replicate 2	Call
GNBP3	1	48147	50786		4193	3649	inactive
Exd2	1	68570	1.34e5		2529	3330	inactive
Utx	1	1.57e5	76744		3817	5307	inactive
CG15084	1	1.68e5	7.54e5	1.20e5	6781	43398	inactive
CG10864	1	5.89e5	1.04e5		29820	2996	inactive
IntS3	1	79689	1.53e5		2361	7130	inactive
CG13124	1	86760	48337		3224	2100	inactive
sit	1	4.14e5	1.25e5		24294	3421	inactive
tw	1	71702	89600		1413	2455	inactive
CG42755 (retired record)	1	1.25e5	2.34e5		3734	10166	inactive
CG42755 (retired record)	2	1.44e5	2.17e5		4101	9300	inactive
CAH2	1	39344	40954	52498	3970	3738	inactive
Obp56b	1	73864	45347		1884	3385	inactive
CG4860	1	1.92e5	8.49e5	1.13e5	8395	47936	inactive
Setd3	1	71238	2.11e5		2242	7514	inactive
Setd3	2	69333	3.28e5		2362	9363	inactive
CG1690	1	1.45e5	57696		2962	434	inactive
CG12782	1	76118	58656		1089	5005	inactive
CG14418	1	57516	1.73e5		2400	6408	inactive
CG11999	1	64999	1.17e5		3430	3606	inactive
LeuRS	1	1.33e5	91293		3474	7165	inactive
inaF-B	1	4.41e5	2.03e5		24568	4336	inactive
su(w[a])	1	69154	70625		1170	2498	inactive
CG3156	1	81318	1.02e5		1573	2706	inactive
klu	1	60912	28304	36907	3696	3538	inactive
CG42564	1	62323	1.03e5		2502	3293	inactive
Tbc1d8-9	1	86028	58480		2752	1475	inactive
Mks1	1	95833	1.63e5		2776	7584	inactive
CG13984	1	1.63e5	61364		3756	5481	inactive
Fur2	1	59476	1.55e5		1348	6214	inactive
CG17028	1	1.27e5			1895	3660	inactive
AttD	1	4.03e5	77301		2994	2994	inactive
Cog3	1	84393	35558		4086	2108	inactive
holn1	1	1.59e5	1.13e5		5802	4842	inactive
wkd	1	77733	1.07e5		2247	5413	inactive
CG2816	1	1.98e5	65462		4819	6192	inactive
CG43131	1	5.45e5	1.80e5	80732	3508	3280	inactive
Cpsf73	1	5.56e5	1.27e5		33846	5160	inactive
Usp16-45	1	1.06e5	73928		2306	1610	inactive
AdoR	1	47216	35296		2507	624	inactive
Or49a	1	70188	58683		1619	3865	inactive
ScsbetaG	1	42987	55187		5498	4093	inactive
Slh	1	95928	93493		2650	2240	inactive
Slh	2	1.12e5	69136		2306	1474	inactive
CG11617	1	1.60e5	1.55e5		3792	3760	inactive
CG5676	1	1.21e5	50868		2861	4425	inactive
Orct	1	1.01e5	91476		4592	4133	inactive
CG44000 + CG33995 + CG44001	1	5.88e5	2.34e5		27360	9096	inactive
CG44000 + CG33995 + CG44001	2	1.32e5	1.38e5		6027	5588	inactive
Anp	1	84726	83826		1907	2541	inactive
CG8531	1	1.08e5	85003		4269	3457	inactive
Osi2	1	90915	70769		3830	2214	inactive
Gyc32E	1	5.61e5	2.02e5		29104	8779	inactive
scramb2	1	72096	49988		2084	3393	inactive
alpha-Man-IIb	1	87751	85444		3088	3180	inactive
Ilp1	1	16935	36518	44780	3282	3178	inactive
pnut	1	58195	54205		2647	2460	inactive

As entered above:
GNBP3, firefly Hh reporter signal, replicate 2: 50786
For “Call”, klu reads inactive
Under “Renilla reference signal, replicate 1”, Orct reads 4592
For “Renilla reference signal, replicate 1”, Gyc32E reads 29104
For “Call”, CG11999 reads inactive
CG13124, Renilla reference signal, replicate 2: 2100
